This is one part of the list. These are further read-outs of the screen, such as a control signal, another cell line or another target. No call is given for them. Compounds called inactive in the main read-out are mostly missing here. Words in brackets tell the shape of the fitted curve; partial curves, single points and poor fits give uncertain potencies.

What is called AC50 is the midpoint of the concentration-response curve, whichever way the signal moves. A higher AC50 goes with activity only at high concentration.

This experiment in a line: qHTS Assay for Lipid Storage Modulators in Drosophila S3 Cells.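 On cell number change: cells counted by Cell Tracker Red CMTPX staining in the red channel.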 Conditions: BODIPY lipid droplet fluorescence, 18-24 h; for cell number change: measured here: cell count max response, cells fed with added oleic acid. The gist of the method:
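Laser-scanning cytometry quantifies lipid droplet accumulation (500–530 nm total intensity; droplet/cell object ratio) in oleic acid-fed (400 uM added) Drosophila S3 cells treated with a concentration series. 20 uM Triacsin C defined 100% inhibition.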
On the technique in general: Quantitative high-throughput screening tests each substance at several concentrations.

The mark [1] stands for this setting: measured here: cell number channel AC50, cells fed with added oleic acid.
The mark [2] stands for this setting: measured here: lipid fluorescence (Fed channel) AC50, cells fed with added oleic acid.

Take `COc1cccc(NC(=O)CN(C)CC(=O)Nc2ccc(Cl)cc2[N+](=O)[O-])c1`: the cell number change was found to be 15.6%. For the same compound, under setting [1], the AC50 is 2.31 µM [rising, single point]. For the same compound, under setting [2], the AC50 is 3.26 µM [rising, single point]. Consider `O=[N+]([O-])c1nn(-c2ccc3c(c2)OCCO3)n(O)c1=NCCCO`, for which the cell number change was -23.2%. Moreover, under setting [2], the AC50 is 14.6 µM [falling, single point]. In the case of `CCOC(=O)C1=C(C)N=C2SC(C(=O)OC)=CC(=O)N2C1c1ccc(OC)cc1` (configuration not stated), the cell number change is -29%. Further, the AC50 under setting [2] is 23.1 µM [falling, single point]. For `COc1ccc(N(CC(=O)NN=C2CCCCCCC2)S(=O)(=O)c2ccccc2)cc1`, the AC50 under setting [2] is 6.51 µM [rising, single point]. Regarding `COc1cccc(OCCc2c(C)n[nH]c2C)c1`, the cell number change is -23.9%. Further, the AC50 under setting [2] was 1.16 µM [rising, partial curve, poor fit]. `COc1ccc(NC(=O)C2CC(=O)N(Cc3ccco3)C2)cc1Cl` (configuration not stated): the cell number change is -5.19%. Under setting [2], the AC50 is 16.4 µM [rising, partial curve]. For `C/C(=C\c1ccccc1)CN1CCC(C(=O)N2CCCC(C)C2)CC1` (configuration not stated), the cell number change amounted to 14%. Also, the AC50 under setting [2] was 1.84 µM [falling, partial curve]. Take `Cc1cc(C)nc(N(C#N)CN2C(=O)c3ccccc3S2(=O)=O)n1`: the cell number change was -27.1%. Further, the AC50 under setting [2] is 29.1 µM [falling, single point]. As to `Cc1cccc2sc(NC(=O)c3ccc(NS(=O)(=O)c4cccs4)cc3)nc12`, the cell number change worked out at 11.9%. Moreover, the AC50 under setting [2] is 2.59 µM [rising, full curve]. For `Cc1ccc(/C=C/C(=O)NC2=NCCS2)cc1`, the cell number change is 168%. Moreover, the AC50 under setting [1] was 29.1 µM [rising, single point]. The half-maximal activity concentration (AC50) under setting [2] was 29.1 µM [rising, single point].

For the compound `CCc1nc(SCC(=O)Nc2nccs2)c2oc3ccccc3c2n1`, the AC50 was 0.82 µM [rising, full curve] under setting [1] and 1.64 µM [rising, partial curve] under setting [2]. On to `CCn1c(SCC(=O)NC(=O)NCc2ccco2)nc2sc(C)c(C)c2c1=O`, for which the cell number change is -3.33%. In the case of `CC(c1ccccc1)n1c(NCCCn2ccnc2)nc2c1c(=O)[nH]c(=O)n2C` (configuration not stated), the cell number change was -4.97%. The AC50 under setting [2] is 9.2 µM [rising, partial curve]. Consider `Cc1ccc(NC(=O)CSc2nnc(C3CC3)n2CC2CCCO2)c(C)c1` (configuration not stated), for which the cell number change was -10.8%. Moreover, the AC50 under setting [2] is 0.58 µM [falling, single point]. Turning to `CCOC(=O)c1sc2ncn(/N=C/N(C)C)c(=O)c2c1C`, the cell number change is 161%. Moreover, the AC50 under setting [1] was 23.1 µM [rising, single point]. With `CCOc1cccc(-c2c(C(=O)N/N=C/c3ccncc3)nnn2-c2nonc2N)c1`, the cell number change stood at 25.1%. Moreover, the AC50 under setting [2] was 0.58 µM [rising, single point].

Turning to `O=C(COc1ccc([N+](=O)[O-])cc1Cl)NCCc1ccccc1`, the cell number change came out at 63.1%. Besides, under setting [1], the half-maximal activity concentration (AC50) is 29.1 µM [rising, single point]. The AC50 under setting [2] was 2.31 µM [rising, partial curve, poor fit]. Regarding `OC(CCN1CCOCC1)(c1ccc(Cl)cc1)C1CCCCC1` (configuration not stated), the cell number change is -43.8%. The AC50 under setting [1] is 32.6 µM [falling, single point]. Consider `Cc1nnsc1C(=O)Nc1ccc(S(=O)(=O)N2CCC(C)CC2)cc1`, for which the cell number change amounted to 7.65%. In addition, under setting [2], the AC50 is 29.1 µM [falling, single point].

Regarding `CN(CCCC1CCCC1)C(=O)c1cc(COc2ccc(F)c(F)c2)on1`, the cell number change is -27.9%. Still for that read-out and setting: then `O=C(COc1ccc2ccccc2c1Br)NCc1ccccn1`, with -43.6%. Consider `CC(=O)C1=C(O)CC(c2ccccc2)CC1=NCCc1c(C)[nH]c2ccccc12` (configuration not stated), for which the cell number change was -0.936%. Moreover, the AC50 under setting [2] was 0.326 µM [rising, full curve]. Take `Cc1cccc(NC(=O)C2CCCN(S(=O)(=O)c3cccc4cccnc34)C2)c1` (configuration not stated): the cell number change was 34.9%. Besides, the AC50 under setting [1] was 23.1 µM [rising, single point]. Consider `CS(=O)(=O)Oc1ccc2c(c1)O/C(=C\C=C\c1ccccc1)C2=O`, for which the cell number change is -40.8%. The AC50 under setting [1] was 29.1 µM [falling, single point]. The AC50 under setting [2] is 6.51 µM [falling, partial curve]. `CCN(CC)S(=O)(=O)c1ccc(Br)c(OC)c1`: the cell number change was -85.2%. Besides, under setting [1], the AC50 is 32.6 µM [falling, partial curve, poor fit]. The AC50 under setting [2] is 16.4 µM [falling, partial curve].

For the compound `CCn1cc(C(=O)NCC2CCCO2)c2cc(OC)c(OC)cc2c1=O` (configuration not stated), the cell number change is 2.8%. The AC50 under setting [2] was 0.00461 µM [falling, full curve, poor fit]. For `Cc1ccc(C)c(NC(=O)CCN2C(=O)[C@@H]3Cc4ccccc4CN3C2=O)c1`, the cell number change amounted to 26.7%. The AC50 under setting [2] was 29.1 µM [rising, single point]. Turning to `Cc1ccc(CCC(=O)Nc2ccc(S(N)(=O)=O)cc2)o1`, the cell number change was -15.7%. Moreover, the AC50 under setting [2] is 5.17 µM [falling, full curve]. For the compound `CCN1CCN(C(=O)c2cccc(OC3CCN(S(C)(=O)=O)CC3)c2)[C@@H](C)C1=O`, the cell number change was determined as 15.6%. In addition, the AC50 under setting [2] was 18.4 µM [rising, single point]. Turning to `N#Cc1c(-c2cccs2)nc(SCc2ccc(Cl)cc2)[nH]c1=O`, the cell number change is -13.3%. Besides, the AC50 under setting [2] was 3.26 µM [falling, single point]. Take `Cc1cccc(C(=O)NC(NCc2ccco2)C(Cl)(Cl)Cl)c1` (configuration not stated): the cell number change was -0.324%.

Consider `CC(=O)CCC(=O)OCC(=O)Nc1ccc(SC(F)F)cc1`, for which the AC50 under setting [2] is 29.1 µM [falling, single point]. In the case of `COCc1c(C(=O)N/N=C\c2cccnc2)nnn1-c1nonc1N`, the cell number change is -1.35%. Under setting [2], the AC50 was 29.1 µM [rising, single point]. As for `Cc1cccc(NC(=O)c2nc[nH]c2C(=O)N[C@@H](C)C(=O)OC(C)(C)C)c1`, the cell number change is -27%. Take `COc1ccc(CN2CCCC(C(=O)c3ccc4c(c3)OCO4)C2)c(F)c1` (configuration not stated): the AC50 under setting [2] is 0.731 µM [rising, full curve]. As to `COc1ccc(-c2nc(SC(C)C(=O)NC3CC3)n[nH]2)cc1` (configuration not stated), the AC50 under setting [2] was 0.461 µM [falling, full curve, poor fit]. Regarding `COc1ccc2c(c1)CCc1c-2nc2ccccc2c1N1CCOCC1`, the cell number change worked out at 0.0973%. In addition, the AC50 under setting [2] is 0.326 µM [rising, full curve].

Consider `COc1cccc(NC(=O)c2sc3nc(N4CCOCC4)c4c(c3c2N)CCCC4)c1`, for which the cell number change is -30.9%. Further, under setting [1], the AC50 was 3.66 µM [falling, full curve, poor fit]. Turning to `COc1ccc(/C=C2\CCC(C3CCCC3)C2=O)c(OC)c1OC` (configuration not stated), the cell number change is 24.1%. Moreover, the AC50 under setting [2] was 0.103 µM [rising, full curve, poor fit]. As for `CCN(CC)CCCNC(=O)CNC(=O)c1nn(-c2ccc(OC)cc2)c(=O)c2ccccc12`, the cell number change was found to be 41.7%. Further, under setting [1], the AC50 was 0.92 µM [rising, full curve, poor fit]. For the same compound, under setting [2], the AC50 is 29.1 µM [rising, partial curve, poor fit]. `O=C(OCCC1Oc2cccnc2NC1=O)c1ccc(Cl)cc1` (configuration not stated): the cell number change came to 10.4%. With `O=c1oc2cc(S(=O)(=O)NCCCO)ccc2c2ccc(S(=O)(=O)NCCCO)cc12`, the cell number change is -4.33%. Also, the AC50 under setting [2] is 29.1 µM [rising, single point]. For the compound `Cc1cc2c(c(/C=C/C(=O)c3ccccc3)c1)OC1(C=C2)Oc2ccccc2C(=O)N1C` (configuration not stated), the cell number change was found to be 32%. Besides, the AC50 under setting [1] is 2.91 µM [rising, partial curve]. With `O=C(Nc1cccc(S(=O)(=O)N2CCCCCC2)c1)c1ccc2c(c1)OCO2`, the cell number change amounted to 33.8%. For the same compound, the AC50 under setting [1] was 13 µM [rising, partial curve, poor fit]. In addition, the AC50 under setting [2] is 0.0259 µM [rising, full curve, poor fit]. Regarding `Cc1cc(C)nc(SCC(=O)NNS(=O)(=O)c2ccc(C#N)cc2)n1`, the cell number change was found to be 4%.

With `COC(=O)Cn1c(CN2CCOCC2)nc2c1c(=O)n(C)c(=O)n2C`, the cell number change stood at 13%. Under setting [1], the AC50 was 0.058 µM [rising, full curve, poor fit]. Besides, under setting [2], the AC50 was 0.92 µM [rising, full curve, poor fit]. With `COc1cc(OC)cc(C(=O)N(Cc2cc3cc(C)ccc3[nH]c2=O)C(C)C)c1`, the cell number change was -4.11%. Further, the AC50 under setting [2] is 0.231 µM [rising, full curve, poor fit].

As to `N#Cc1ccc(NCC(=O)N2CCN(S(=O)(=O)c3ccccc3)CC2)cc1`, the cell number change stood at 1.88%. For the same compound, the AC50 under setting [2] is 7.31 µM [falling, partial curve, poor fit]. For the compound `CCOc1ccccc1NC(=S)N1CCN(c2cccc(C)c2C)CC1`, the cell number change is -36.7%. Under setting [1], the AC50 is 14.6 µM [falling, single point].

Consider `Cc1cccc(NC(=O)N2CCN(Cc3ccc(Cl)cc3)CC2)c1`, for which, under setting [2], the AC50 is 29.1 µM [falling, single point]. As to `CC(NS(=O)(=O)c1ccc(OCC(=O)N2CCCC2)cc1)c1ccccc1` (configuration not stated), the cell number change turned out to be 8.73%. On to `Cc1nn2c(=O)c(NC(=O)c3ccc(F)cc3)cnc2s1`, for which the cell number change is -17.2%. The AC50 under setting [2] is 29.1 µM [falling, single point]. In the case of `COc1ccc(C2/C(=C(\O)c3ccc4c(c3)CC(C)O4)C(=O)C(=O)N2Cc2cccnc2)c(OC)c1` (configuration not stated), the cell number change was -14.7%. Also, the AC50 under setting [2] was 4.61 µM [rising, single point].

In the case of `C/C(=N\NC(=O)C(=O)Nc1cccc(Cl)c1C)c1ccncc1`, the AC50 runs as follows: under setting [1], 0.00461 µM [falling, full curve, poor fit]; under setting [2], 2.31 µM [falling, partial curve, poor fit]. With `Cc1ccc(CCNC(=O)c2ccc(CS(=O)(=O)c3ccccc3C)o2)cc1`, the cell number change came to 12.5%. Moreover, under setting [2], the AC50 was 0.184 µM [falling, full curve, poor fit]. For `COc1ccccc1NC(=O)C(=O)NCC(c1ccco1)N1CCc2ccccc2C1` (configuration not stated), the cell number change turned out to be 22.3%. The AC50 under setting [2] is 13 µM [rising, partial curve].

As for `COc1cc2c(cc1OC)CN(C(=O)CCNC(=O)c1ccc(Br)cc1)CC2`, the AC50 under setting [2] was 23.1 µM [rising, single point]. Regarding `Cc1ccc(NC(=O)CCNS(=O)(=O)c2ccc(OC(F)(F)F)cc2)c(O)c1`, the cell number change is -5.78%. Turning to `C=CCc1cc(OC)ccc1OCC(O)CN1CCN(c2ccc(OC)cc2)CC1` (configuration not stated), the cell number change was found to be 51.6%. With `Cc1ccc(-n2c(SCc3cc(=O)n4ccsc4n3)nnc2-c2cccnc2)c(C)c1`, the cell number change is 0.769%. Moreover, the AC50 under setting [2] was 25.9 µM [rising, single point].

For the origin of these results see PubChem BioAssay AID2685 (National Center for Advancing Translational Sciences (NCATS), 2010).
